The supplement of paper PMC12823440, “Inhibitors supercharge kinase turnover through native proteolytic circuits” (Nature, 2025)
Counter-ions that a name gives are not always drawn. The list shows a part of the results. The calls rarely recur for the same compound in another form.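 Kinases were expressed as nanoluciferase fusions in K562 cells and luminescence was read every 4 h between 2 and 18 h as percent of control, DMSO set to 100% and a positive control to 0%. A time point counts as decreased when the signal drops significantly (2 sigma). The hit call is the authors' own, does not follow from the count of time points alone, and its rule is not shown.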

Chains of the proteins cited; added tags and fusions are not shown. Lines headed by an entry give the natural chain unless they say otherwise; changes in a name come on top.
UniProt P41240: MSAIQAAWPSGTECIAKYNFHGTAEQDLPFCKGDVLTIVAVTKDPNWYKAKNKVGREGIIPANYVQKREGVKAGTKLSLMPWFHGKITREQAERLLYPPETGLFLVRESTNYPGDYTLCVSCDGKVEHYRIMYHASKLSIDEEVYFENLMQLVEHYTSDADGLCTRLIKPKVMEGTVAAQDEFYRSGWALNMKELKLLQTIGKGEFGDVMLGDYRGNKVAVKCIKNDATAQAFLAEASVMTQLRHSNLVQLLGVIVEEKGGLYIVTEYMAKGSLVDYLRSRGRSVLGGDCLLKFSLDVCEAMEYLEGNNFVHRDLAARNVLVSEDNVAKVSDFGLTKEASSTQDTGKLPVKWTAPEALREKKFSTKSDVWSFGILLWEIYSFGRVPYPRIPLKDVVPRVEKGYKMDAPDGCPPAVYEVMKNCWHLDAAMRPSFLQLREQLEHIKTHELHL

Target: CSK (UniProt P41240)
Assay: number of time points (of 5) at which kinase-Nluc abundance scored as decreased, DMSO-normalised (count); higher = more persistent destabilization
Conditions: K562; 2-18 h

Row | SMILES | number of time points
1 | Cn1c(N2CCO[C@@H](c3ccc(F)cc3)C2)nc(-c2ccncn2)cc1=O (10 µM) | 0
2 | C[C@@H](NC(=O)c1ncnc(N)c1Cl)c1ncc(C(=O)Nc2cc(C(F)(F)F)c(Cl)cn2)s1 (2.5 µM) | 0
3 | CO/N=C1/C(c2c(O)[nH]c3cc(Cl)c(Cl)cc23)=Nc2ccccc21 (10 µM) | 0
4 | Cc1n[nH]c2ncc(C(=O)N3CCC[C@H]3c3ccc(Cl)cc3)cc12 (10 µM) | 0
5 | Cc1ccc(Nc2cc(N[C@@H]3CCCC[C@@H]3N)nnc2C(N)=O)nc1C (2 µM) | 0
6 | NC(=O)c1cnc(N[C@@H]2CCCC[C@@H]2N)nc1Nc1cccc(-n2nccn2)c1 (2.5 µM) | 0
7 | CCc1c(C(=O)NNC(=O)[C@H](O)c2cc(F)cc(F)c2)ccc(O)c1C (10 µM) | 0
8 | CC/C(=C(\c1ccccc1)c1ccc(OCCNC)cc1)c1ccccc1 [N-Desmethyltamoxifen (hydrochloride)] (2.5 µM) | 0
9 | CCCCNc1ncc(C(=O)NCc2ccc(-n3ccnc3)cc2)c(NC2CCC(O)CC2)n1 (stereo not given) (10 µM) | 0
10 | Oc1ccc(-c2cnc3ccc(NCc4ccco4)nn23)cc1 [IRAK inhibitor 2] (2.5 µM) | 0
11 | CS(=O)(=O)c1ccc([C@@H](CC2CCCC2)C(=O)Nc2nccs2)cc1 (10 µM) | 0
12 | CC(=O)O/N=C1/C(c2c(O)[nH]c3cc(Br)ccc23)=Nc2ccccc21 [BIO-acetoxime] (10 µM) | 0
13 | COc1cc2nc(-c3cc(F)ccc3O)nc(N[C@@H]3CNC[C@H]3C(C)(C)O)c2cc1OC (2.5 µM) | 0
14 | CS(=O)(=O)c1cccc(CNc2nc(Nc3ccc4c(c3)CCC(=O)N4)ncc2C(F)(F)F)c1 (10 µM) | 0
15 | Nc1nc(Nc2ccc3c(c2)CC[C@@H](N2CCCC2)CC3)nn1-c1cc2c(nn1)-c1ccccc1CCC2 [Bemcentinib] (2.5 µM) | 0
16 | Nc1[nH]nc2nnc(-c3c(-c4ccccc4)nn4ccccc34)cc12 (10 µM) | 0
17 | CN1CCN(Cc2ccc(-c3cnc4[nH]cc(-c5ccc6[nH]ccc6c5)c4c3)cc2)CC1 (2.5 µM) | 0
18 | CC(C)n1cnc2c(Nc3cccc(Cl)c3)nc(N[C@H]3CCCC[C@@H]3N)nc21 (2.5 µM) | 0

Row | SMILES | number of time points
19 | CCC(F)(F)c1cc(N2CCC(S(C)(=O)=O)CC2)nc2sc(C(N)=O)c(N)c12 (10 µM) | 0
20 | CC(C)c1cc2c(c(O)c1O)[C@@]13CCCC(C)(C)[C@@H]1C[C@@H]2OC3=O [Carnosol] (2.5 µM) | 0
21 | COc1ccc2nc3ccc(OC)cc3c(SCCCN)c2c1 (10 µM) | 0
22 | COc1cc2nnc(C(N)=O)c(Nc3ccc(C)cc3F)c2cc1N1CCN(CCO)CC1 (2.5 µM) | 0
23 | Nc1ccc(C(=O)Nc2cccc(-c3nc(N4CCOCC4)c4oc5ncccc5c4n3)c2)cn1 (10 µM) | 0
24 | Cc1nn(CC(F)(F)F)cc1Nc1ncc(Br)c(NCc2ccc(S(N)(=O)=O)cc2)n1 (10 µM) | 0
25 | O=C1NC(=O)C(Cc2c[nH]c3c(Cl)cccc23)N1 (stereo not given) [Necroptosis-IN-1] (10 µM) | 0
26 | CCCCNc1ncc2c(-c3ccc(F)cc3)nn(CC3CCC(N)CC3)c2n1 (stereo not given) (2.5 µM) | 0
27 | Cn1cc(-c2nc(N[C@@H]3CCCC[C@@H]3N)c(F)c3c2C(=O)NC3)cn1 [TAK-659 (hydrochloride)] (2 µM) | 0
28 | O=C1OC(COc2ccccc2[N+](=O)[O-])CC1Cc1ccccc1 (stereo not given) (10 µM) | 0
29 | Cc1cnc(Nc2ccc(F)cc2Cl)nc1-c1c[nH]c(C(=O)N[C@H](CO)c2cccc(Cl)c2)c1 (10 µM) | 0
30 | N#Cc1cnc(Nc2cc(NC[C@H]3CNCCO3)c(C(F)(F)F)cn2)cn1 (10 µM) | 0
31 | CNc1cc2c(Nc3cccc(Br)c3)ncnc2cn1 (10 µM) | 0
32 | Cc1ncsc1-c1ccc(CNC(=O)[C@@H]2C[C@@H](O)CN2C(=O)[C@@H](NC(=O)COCCOc2ccc(-c3cc(Nc4ccc(OC(F)(F)F)cc4)ncn3)cc2)C(C)(C)C)cc1 (2.5 µM) | 0
33 | O=CN1CCN(c2ccc(C=C3C(=O)Nc4ccccc43)cc2)CC1 (10 µM) | 0
34 | CN1C(=O)[C@@H](NC(=O)c2cc(Cc3ccccc3)on2)COc2ccccc21 (10 µM) | 0
35 | O=C(CCl)c1c[nH]c2ccccc12 (2.5 µM) | 0

Some of the entries above in another layout:

| Row | SMILES | number of time points |
| --- | --- | --- |
| 28 | O=C1OC(COc2ccccc2[N+](=O)[O-])CC1Cc1ccccc1 (stereo not given) (10 µM) | 0 |
| 31 | CNc1cc2c(Nc3cccc(Br)c3)ncnc2cn1 (10 µM) | 0 |
